Assay results taken from paper PMC8626462.

By UniProt entry, the sequences of proteins in these tests, tags left out.
UniProt Q86U86: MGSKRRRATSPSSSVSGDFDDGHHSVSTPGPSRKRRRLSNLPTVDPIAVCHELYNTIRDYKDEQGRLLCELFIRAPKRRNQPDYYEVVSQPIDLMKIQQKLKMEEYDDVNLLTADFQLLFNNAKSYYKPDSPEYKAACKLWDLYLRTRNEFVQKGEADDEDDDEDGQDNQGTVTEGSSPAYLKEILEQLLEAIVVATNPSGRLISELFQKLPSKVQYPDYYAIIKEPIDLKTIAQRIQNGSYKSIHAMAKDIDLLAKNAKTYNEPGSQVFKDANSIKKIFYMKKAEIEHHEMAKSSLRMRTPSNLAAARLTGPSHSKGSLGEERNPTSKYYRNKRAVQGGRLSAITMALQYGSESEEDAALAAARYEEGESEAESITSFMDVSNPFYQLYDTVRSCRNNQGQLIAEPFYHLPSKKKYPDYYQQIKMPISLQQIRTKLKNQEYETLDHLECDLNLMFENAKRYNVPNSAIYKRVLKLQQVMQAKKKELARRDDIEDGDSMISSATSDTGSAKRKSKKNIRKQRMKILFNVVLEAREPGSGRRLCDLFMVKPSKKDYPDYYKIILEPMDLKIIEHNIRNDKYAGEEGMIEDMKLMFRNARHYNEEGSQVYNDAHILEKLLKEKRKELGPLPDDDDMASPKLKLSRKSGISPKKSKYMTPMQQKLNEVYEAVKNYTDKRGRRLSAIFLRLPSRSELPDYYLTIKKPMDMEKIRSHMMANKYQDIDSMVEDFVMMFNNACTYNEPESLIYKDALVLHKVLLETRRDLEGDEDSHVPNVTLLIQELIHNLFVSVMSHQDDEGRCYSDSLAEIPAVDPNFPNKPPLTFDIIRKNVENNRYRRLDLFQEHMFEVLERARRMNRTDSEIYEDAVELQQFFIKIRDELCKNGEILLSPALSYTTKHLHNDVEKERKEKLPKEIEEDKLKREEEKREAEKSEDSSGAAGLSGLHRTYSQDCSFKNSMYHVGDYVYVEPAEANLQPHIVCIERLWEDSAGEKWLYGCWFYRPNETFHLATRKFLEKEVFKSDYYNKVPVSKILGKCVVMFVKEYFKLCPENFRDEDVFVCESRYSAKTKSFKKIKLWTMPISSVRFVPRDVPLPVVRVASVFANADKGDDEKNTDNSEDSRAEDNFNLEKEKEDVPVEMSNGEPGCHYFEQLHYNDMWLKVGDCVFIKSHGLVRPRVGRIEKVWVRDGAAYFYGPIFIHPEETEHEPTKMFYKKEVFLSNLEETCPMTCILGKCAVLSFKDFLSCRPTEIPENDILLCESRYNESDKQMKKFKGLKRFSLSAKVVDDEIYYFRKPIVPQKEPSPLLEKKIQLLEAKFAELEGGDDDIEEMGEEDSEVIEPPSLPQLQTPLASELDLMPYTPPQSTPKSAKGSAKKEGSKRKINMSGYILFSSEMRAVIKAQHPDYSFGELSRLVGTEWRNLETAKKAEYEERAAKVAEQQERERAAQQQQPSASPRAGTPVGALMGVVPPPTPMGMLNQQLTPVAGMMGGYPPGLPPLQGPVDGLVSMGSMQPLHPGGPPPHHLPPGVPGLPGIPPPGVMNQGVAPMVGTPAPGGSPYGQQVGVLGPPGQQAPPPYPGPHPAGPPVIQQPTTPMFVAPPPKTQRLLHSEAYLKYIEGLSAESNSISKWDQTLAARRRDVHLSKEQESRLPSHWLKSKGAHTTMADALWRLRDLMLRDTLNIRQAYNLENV
UniProt P51532: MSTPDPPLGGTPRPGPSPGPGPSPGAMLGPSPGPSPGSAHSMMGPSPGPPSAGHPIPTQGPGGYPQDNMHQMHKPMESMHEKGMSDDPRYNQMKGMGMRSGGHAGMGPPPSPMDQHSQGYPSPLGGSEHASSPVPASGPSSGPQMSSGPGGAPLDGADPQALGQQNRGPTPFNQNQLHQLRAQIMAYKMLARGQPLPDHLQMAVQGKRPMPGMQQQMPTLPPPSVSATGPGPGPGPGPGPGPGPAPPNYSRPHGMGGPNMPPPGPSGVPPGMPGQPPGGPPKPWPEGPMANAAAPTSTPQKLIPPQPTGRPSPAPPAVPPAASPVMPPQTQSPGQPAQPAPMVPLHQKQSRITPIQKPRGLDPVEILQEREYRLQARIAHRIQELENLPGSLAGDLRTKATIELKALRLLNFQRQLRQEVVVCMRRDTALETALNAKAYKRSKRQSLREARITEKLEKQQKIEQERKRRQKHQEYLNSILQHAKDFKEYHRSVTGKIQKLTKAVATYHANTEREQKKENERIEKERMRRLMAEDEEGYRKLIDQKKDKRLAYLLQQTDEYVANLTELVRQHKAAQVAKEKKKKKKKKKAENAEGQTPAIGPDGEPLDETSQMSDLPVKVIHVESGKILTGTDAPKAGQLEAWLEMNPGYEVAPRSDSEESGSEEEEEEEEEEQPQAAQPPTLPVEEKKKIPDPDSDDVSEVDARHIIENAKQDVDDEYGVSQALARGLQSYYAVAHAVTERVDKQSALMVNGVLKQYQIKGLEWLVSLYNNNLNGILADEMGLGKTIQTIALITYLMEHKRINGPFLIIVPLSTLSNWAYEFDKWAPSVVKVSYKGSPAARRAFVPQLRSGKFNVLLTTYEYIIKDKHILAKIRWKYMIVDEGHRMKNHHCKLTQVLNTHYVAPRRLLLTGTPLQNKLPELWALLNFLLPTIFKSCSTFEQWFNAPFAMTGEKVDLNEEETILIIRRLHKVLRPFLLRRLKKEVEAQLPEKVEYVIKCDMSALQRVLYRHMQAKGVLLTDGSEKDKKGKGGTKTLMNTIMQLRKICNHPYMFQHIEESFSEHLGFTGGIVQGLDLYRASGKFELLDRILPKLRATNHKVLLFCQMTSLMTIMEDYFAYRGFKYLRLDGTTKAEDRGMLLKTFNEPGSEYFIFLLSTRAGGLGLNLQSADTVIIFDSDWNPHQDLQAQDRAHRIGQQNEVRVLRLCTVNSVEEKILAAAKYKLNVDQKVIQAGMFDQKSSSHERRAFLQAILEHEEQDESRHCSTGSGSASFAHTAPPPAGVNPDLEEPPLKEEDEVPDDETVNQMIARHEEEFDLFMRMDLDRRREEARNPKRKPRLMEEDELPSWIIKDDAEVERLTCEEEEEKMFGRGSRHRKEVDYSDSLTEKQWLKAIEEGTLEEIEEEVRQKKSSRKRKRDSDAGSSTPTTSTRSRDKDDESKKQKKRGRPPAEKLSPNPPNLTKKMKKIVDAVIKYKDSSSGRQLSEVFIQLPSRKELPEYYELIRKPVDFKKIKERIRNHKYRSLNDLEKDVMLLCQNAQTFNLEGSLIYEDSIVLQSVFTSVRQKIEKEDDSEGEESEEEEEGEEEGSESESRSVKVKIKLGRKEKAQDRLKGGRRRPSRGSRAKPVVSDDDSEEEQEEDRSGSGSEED

Key:
[1] = target: PBRM1 (human (endogenous in HEK293T, RH4, RH30)) (UniProt Q86U86); assay: affinity purification with mass spectrometry; SEC-IP-LCMS: 1-2 megadalton SEC fractions (16-18) of ammonium sulfate precipitated nuclear extracts of RH30 and RH4 cells, diluted 1:1 in SEC-IP buffer; 3 µg BRG1, PBRM1 (results also: BRM) or non-specific IgG antibody, ~16 h 4 °C; Protein A Dynabeads 4 h; on-bead trypsin digestion, LCMS
[2] = target: BRG1 (encoded by SMARCA4) (human (endogenous in HEK293T, RH4, RH30)) (UniProt P51532); assay: as above

binding [1]: binds
binding [2]: binds
B1: PHF10 (protein, UniProt Q8WUB8 1-498)
chain: MAAAAGPGAALSPRPCDSDPATPGAQSPKDDNEDNSNDGTQPSKRRRMGSGDSSRSCETSSQDLGFSYYPAENLIEYKWPPDETGEYYMLQEQVSEYLGVTSFKRKYPDLERRDLSHKEKLYLRELNVITETQCTLGLTALRSDEVIDLMIKEYPAKHAEYSVILQEKERQRITDHYKEYSQMQQQNTQKVEASKVPEYIKKAAKKAAEFNSNLNRERMEERRAYFDLQTHVIQVPQGKYKVLPTERTKVSSYPVALIPGQFQEYYKRYSPDELRYLPLNTALYEPPLDPELPALDSDGDSDDGEDGRGDEKRKNKGTSDSSSGNVSEGESPPDSQEDSFQGRQKSKDKAATPRKDGPKRSVLSKSVPGYKPKVIPNAICGICLKGKESNKKGKAESLIHCSQCENSGHPSCLDMTMELVSMIKTYPWQCMECKTCIICGQPHHEEEMMFCDMCDRGYHTFCVGLGAIPSGRWICDCCQRAPPTPRKVGRRGKNSKEG

No constants are given. Whether binding was seen depends on the method and setting. Binding seen in cells or lysates may run through a third protein. A yes stands for co-enrichment or nearness to the bait. Other partners may have been found.
